# Screen size: about 330,000 compounds; about 1,000 (0.3%) were called active. Inconclusive results, whose numbers are uncertain, are shown with a selection of clear calls. The call rests on the fitted dose curve; in most records, active means well fitted inhibition curve with a large enough effect; inconclusive means small, poorly fitted or top-dose-only effect; inactive means no such curve, though single readings can be large or run the other way; tested in mouse RAW 264.7 cells. Potencies of inconclusive entries are doubtful fits and often do not repeat.
# Assay: qHTS for Inhibitors of Cell Surface uPA Generation; further: nearly all actives have a fitted effect of over 55% in size
# Conditions: cell surface uPA generation assay; series mostly up to 38.3 µM
# Method in brief: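 RAW 264.7 cells, 4000/well, given compound (1:5 dilutions, up to 38.3 uM final) and incubated 24 h at 37 C. Blocked uPA-dependent LF entry keeps ATP high; ATPlite luminescence read, 5 s exposure.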
# Potency means the concentration at half of the fitted maximal effect.
row,SMILES,Potency
1,CN(C)CCCNC(=O)c1cc2sc3ccccc3c2s1,inactive
2,CCOC(=O)c1oc2ccc(Cl)cc2c1NC(C)=O,"inconclusive: 12.6 µM [inhibitor, single point]"
3,CCOC(=O)c1ccc(NC(=S)NCCc2ccccc2)cc1,inactive
4,Cc1ccc(C)c(S(=O)(=O)N2CCN(c3nc(CN4CCOCC4)nc4sc(C)c(C)c34)CC2)c1,"inconclusive: 11.2 µM [inhibitor, single point]"
5,O=C(Nc1cccc2ccccc12)N1CCN(c2ncccn2)CC1,"inconclusive: 10 µM [inhibitor, partial curve, poor fit]"
6,Cc1ccc(C(=O)N/N=C(/CC(=O)c2cccs2)C(F)(F)F)cc1,inactive
7,CN(C)c1ccc(/C=C2\SC(N3CCCCC3)=NC2=O)cc1,"inconclusive: 4.47 µM [inhibitor, partial curve, poor fit]"
8,CCOc1ccccc1NC(=O)c1cc(-c2ccccn2)nc2ccccc12,"inconclusive: 0.0089 µM [inhibitor, full curve, poor fit]"
9,Cc1ccc(NC(=O)c2ccccn2)c(Br)c1,"inconclusive: 10 µM [inhibitor, partial curve]"
10,COc1ccc(NC(=O)Nc2cccc(C)n2)cc1,"inconclusive: 3.16 µM [inhibitor, partial curve, poor fit]"
11,CCSc1nnc(NC(=O)CCN2C(=O)C3CCCCC3C2=O)s1 (stereo not drawn),"inconclusive: 2 µM [inhibitor, single point]"
12,CCCc1[nH]c2ccc(C#N)cc2c1CCC,"inconclusive: 8.91 µM [inhibitor, single point]"
13,O=C(NC(=S)N1CCN(c2ccc(O)cc2)CC1)c1cccs1,"inconclusive: 8.91 µM [inhibitor, single point]"
14,COc1ccc(NC(=O)c2ccc(-c3ccc(-c4noc(C)n4)cc3C)cc2)cc1N1CCN(C)CC1,"inconclusive: 14.1 µM [inhibitor, partial curve, poor fit]"
15,COc1cccc(OCc2ccc(Cl)cc2)c1C#N,active: 8.91 µM
16,CC(C)Nc1nnc(SCC(=O)N2CCN(C(=O)c3ccco3)CC2)s1,inactive
17,CN1CCN(c2ccccc2NC(=O)c2ccc(N3CCCC3)c([N+](=O)[O-])c2)CC1,inactive
18,CN(CC(=O)Nc1ccc(Cl)c(Cl)c1)C(=O)CNC(=O)C1CCCCC1,"inconclusive: 11.2 µM [inhibitor, single point]"
19,Cc1ccc(Cn2c(CCNc3nc(-c4ccc(Cl)c([N+](=O)[O-])c4)cs3)nc3cc(C(=O)NCCCO)ccc32)cc1,"inconclusive: 28.2 µM [inhibitor, single point]"
20,CO[C@H]1/C=C/O[C@@]2(C)Oc3c(C)c(O)c4c(O)c(c(C=NN5CCN(C)CC5)c(O)c4c3C2=O)NC(=O)/C(C)=C\C=C\[C@H](C)[C@H](O)[C@@H](C)[C@@H](O)[C@@H](C)[C@H](OC(C)=O)[C@@H]1C,"inconclusive: 1.78 µM [inhibitor, partial curve]"
21,COC(=O)Cc1nnc(SCC(=O)Nc2ccccc2)c2ccccc12,"inconclusive: 10 µM [inhibitor, partial curve, poor fit]"
22,Fc1ccc(NC(=S)Nc2nccs2)cc1,"inconclusive: 11.2 µM [inhibitor, partial curve, poor fit]"
23,Cc1ccc(NC(=O)NC(=O)N(c2ccccc2)S(C)(=O)=O)cc1,inactive

row,SMILES,Potency
1,O=C(Oc1c(Cl)cc(Cl)c2cccnc12)c1ccco1,inactive
2,CCc1nnc(NC(=O)c2ccc3ccccc3n2)s1,"inconclusive: 12.6 µM [inhibitor, single point]"
3,Cc1cccc2sc(NNC(=O)c3cc(-c4cccs4)nc4ccccc34)nc12,"inconclusive: 25.1 µM [inhibitor, single point]"
4,N#C/C(=C\c1ccc(O)c(O)c1)C(=O)N1CCc2ccccc21,active: 3.55 µM
5,COc1ccc(C(CCN2CCCCC2)c2c(OC)cc(OC)c3c(-c4ccccc4)cc(=O)oc23)cc1 (stereo not drawn),"inconclusive: 11.2 µM [inhibitor, single point]"
6,CCc1ccc(CN(C)C(=O)c2cc(COc3cccc4cnccc34)on2)cc1,"inconclusive: 14.1 µM [inhibitor, partial curve, poor fit]"
7,Cc1ccc2[nH]c(=O)c3cc(C(=O)N(C)c4ccc(C)c(C)c4)sc3c2c1,"inconclusive: 3.55 µM [inhibitor, partial curve, poor fit]"
8,Cc1cc(-c2n[nH]c(=S)n2/N=C/c2cc([N+](=O)[O-])ccc2Cl)n[nH]1,inactive
9,CC(=O)CN1Cc2ccccc2/C1=N\C(=O)Nc1ccccc1,inactive
10,CCCOc1ccc(-c2cn3ccccc3n2)cc1,"inconclusive: 2.82 µM [inhibitor, full curve, poor fit]"
11,COc1ccc(CCNc2ncnc3nc[nH]c23)cc1OC,"inconclusive: 4.47 µM [inhibitor, partial curve, poor fit]"
12,CN1CCC(=C2c3ccccc3CCc3sccc32)CC1,"inconclusive: 6.31 µM [inhibitor, single point]"
13,Cc1ccc(-n2nc3c(N4CCC(C(=O)NCc5ccc(C)o5)CC4)nnc(C)c3c2C)cc1,"inconclusive: 8.91 µM [inhibitor, single point]"
14,N=c1n(CCCOc2ccccc2Cl)c2ccccc2n1CC(N)=O,inactive
15,CCN(CCS(=O)(=O)c1ccc(Br)cc1)Cc1nc2ccccc2c(=O)[nH]1,"inconclusive: 31.6 µM [inhibitor, partial curve, poor fit]"
16,CSCCC1NC(=O)N(CC(=O)Nc2cc(C)on2)C1=O (stereo not drawn),"inconclusive: 14.1 µM [inhibitor, single point]"
17,CN1CCN(C2CCN(Cc3ccc(O)c4ncccc34)CC2)CC1,"inconclusive: 3.55 µM [inhibitor, partial curve, poor fit]"
18,CCCc1cc(C(=O)Nc2sc3c(c2C#N)CCC3)no1,"inconclusive: 12.6 µM [inhibitor, single point]"
19,O=C(c1ccccc1)N1CCc2ccccc21,inactive
20,Cc1[nH]c2ccccc2c1C(=O)C(=O)N1CCN(c2cccc(Cl)c2)CC1,"inconclusive: 3.16 µM [inhibitor, partial curve, poor fit]"
21,CC(=O)NC1CC2CCCC(C1)N2Cc1ccc(C)cc1 (stereo not drawn),"inconclusive: 0.199 µM [inhibitor, partial curve, poor fit]"
22,CCOC(=O)c1c(CC(C)C)csc1/N=C/C1=C(O)CCCC1=O,"inconclusive: 12.6 µM [inhibitor, single point]"
23,CCn1c(=O)n(CC)c2cc(N3CCCC3)c(NC(=O)c3ccc(F)cc3)cc21,"inconclusive: 31.6 µM [inhibitor, single point]"

# Individual results from the list:
# Value of CCc1nnc(NC(=O)c2ccc3ccccc3n2)s1 under Potency: inconclusive: 12.6 µM [inhibitor, single point]
# Value of CCCc1[nH]c2ccc(C#N)cc2c1CCC under Potency: inconclusive: 8.91 µM [inhibitor, single point]

# (more compounds)

row,SMILES,Potency
1,N#CC1=C2N=C(N)c3ccccc3N2C2=C(C(=O)CCC2)C1c1ccc(Cl)cc1 (stereo not drawn),"inconclusive: 20 µM [inhibitor, single point]"
2,CN(C)c1ccc(NC(=O)c2ccc3nc[nH]c3c2)cc1,inactive
3,O=C(CSc1nnc(CNC(=O)c2ccco2)o1)Nc1cccc(Cl)c1,"inconclusive: 1 µM [inhibitor, partial curve, poor fit]"
4,Cc1ccc(S(=O)(=O)N(C)C[C@H]2Oc3c(NC(=O)Nc4cccc5ccccc45)cccc3C(=O)N([C@@H](C)CO)C[C@@H]2C)cc1,"inconclusive: 17.8 µM [inhibitor, partial curve, poor fit]"
5,NC(=O)c1ccc(NC(=O)COC(=O)CCN=C2NS(=O)(=O)c3ccccc32)cc1,"inconclusive: 2.82 µM [inhibitor, single point]"
6,COc1ccc(CCNC(=S)c2ccccc2)cc1OC,"inconclusive: 8.91 µM [inhibitor, partial curve, poor fit]"
7,Cc1c(C(=O)OCC(=O)N(C)CC(=O)Nc2ccc(F)cc2)oc2ccccc12,"inconclusive: 0.02 µM [inhibitor, full curve, poor fit]"
8,COc1ccccc1Oc1ccnc2cc(Cl)ccc12,inactive
9,COc1cc(OC)c2cc(C(=O)N/N=C/c3ccccc3O)[nH]c2c1,"inconclusive: 4.47 µM [inhibitor, partial curve, poor fit]"
10,COc1ccccc1C/C(N)=N/OC(=O)c1ccc2c(c1)OCO2,"inconclusive: 11.2 µM [inhibitor, partial curve, poor fit]"
11,COc1ccc(OC)c(-c2cnc(OC(C)(C)C)nc2OC(C)(C)C)c1,active: 2.24 µM
12,Cc1ccc(Cn2c(O)c(N=NC(=S)Nc3ccccc3F)c3ccccc32)cc1,"inconclusive: 2.51 µM [inhibitor, partial curve, poor fit]"
13,C=CC[n+]1c(-c2ccc(C)cc2)csc1Nc1ccc(NC(C)=O)cc1,active: 7.08 µM
14,O=C(Nc1ccc(Cl)cc1Cl)c1cc2ccccc2o1,inactive
15,O=C(O)CCC(=O)Nc1ccc(Br)cc1C(=O)c1ccccc1,"inconclusive: 3.16 µM [inhibitor, partial curve, poor fit]"
16,CCOc1cccc(/C=C/c2ccc3cccc(O)c3n2)c1O,inactive
17,CC(C)(C)NCC(O)Cn1cc(C=O)c2ccccc21 (stereo not drawn),inactive
18,O=C(N/N=C\c1ccc([N+](=O)[O-])o1)c1cncc(Br)c1,inactive
19,Nc1nc(CCl)nc(Nc2ccccc2)n1,"inconclusive: 12.6 µM [inhibitor, single point]"
20,COc1cc(S(=O)(=O)Nc2ccccc2C(=O)N2CCCC2)ccc1NC(C)=O,inactive
21,O=C(N1CCc2[nH]c3ccccc3c2C1)C(F)(F)F,inactive
22,Cc1cc(C(=O)CN2c3cccc4cccc(c34)S2(=O)=O)c(C)n1C,active: 2 µM

# Laid out differently: four of the compounds above.
row | SMILES | Potency
16 | CCOc1cccc(/C=C/c2ccc3cccc(O)c3n2)c1O | inactive
17 | CC(C)(C)NCC(O)Cn1cc(C=O)c2ccccc21 (stereo not drawn) | inactive
18 | O=C(N/N=C\c1ccc([N+](=O)[O-])o1)c1cncc(Br)c1 | inactive
19 | Nc1nc(CCl)nc(Nc2ccccc2)n1 | inconclusive: 12.6 µM [inhibitor, single point]
